## Screening data

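Release of a luciferase ER-calcium reporter from SH-SY5Y cells after thapsigargin-induced ER calcium loss, read by luminescence following overnight compound exposure. A concentration series was tested, mostly reaching about 76 µM. Potency is the concentration giving half of the fitted maximal drop in reporter secretion; lower values mean stronger potency. Calls come from fitted curve class and an activity score, where scores of 1 to 39 are filed as inconclusive.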

Values are in µM. Every entry below has the call inconclusive. Only part of the assay is shown, chiefly results filed as inconclusive. A potency from a partial, single-point or poor curve is only a rough figure. Some entries filed as inconclusive have a full curve. Activity scores are not listed here. An entry listed twice with the same setting is a separate test.

compound	fitted potency (µM)	curve
N=C(N)SCCN=C(N)N	63.1	inhibitor, partial curve, poor fit
CN1CC[C@@H]2CN3CCc4cccc(c43)[C@@H]2C1	1.778	inhibitor, full curve, poor fit
CC(=O)C1=C(O)C2C3c4c[nH]c5cccc(c45)CC3C(C)(C)N2C1=O (stereo not drawn)	8.912	inhibitor, partial curve
COc1ccc(Oc2ncc3nc(-c4ccccc4)c(=O)n(C4CC4)c3n2)cc1	50.12	inhibitor, single point
CC(C)N=C(N)N=C(N)Nc1ccc(Cl)cc1	39.81	inhibitor, partial curve
c1ccc(N2CCCC3(CCNCC3)C2)nc1	44.67	inhibitor, partial curve
CCCOc1ccc2[nH]cc(C3=CCNCC3)c2n1	11.22	inhibitor, full curve
CC(C)=CCc1c2c(c3occ(-c4ccc(O)c(O)c4)c(=O)c3c1O)C=CC(C)(C)O2	15.85	inhibitor, partial curve
C=CCNc1nc(NCC=C)nc(N2CCN(C(c3ccc(F)cc3)c3ccc(F)cc3)CC2)n1	19.95	inhibitor, full curve, poor fit
Nc1ccc(CCN2CCN(c3cccc(C(F)(F)F)c3)CC2)cc1	35.48	inhibitor, partial curve, poor fit
O=C1c2ccccc2C(=O)c2c(NCCc3ccc(O)cc3)ccc(NCCc3ccc(O)cc3)c21	12.59	inhibitor, full curve
COCCn1c(=O)c(-c2ccccc2)nc2cnc(N3CCNCC3)nc21	39.81	inhibitor, partial curve, poor fit
O[C@@H](COc1cccc2ncccc12)CN1CCN(C2c3ccccc3[C@@H]3[C@H](c4ccccc42)C3(F)F)CC1 (stereo partly drawn)	19.95	inhibitor, partial curve, poor fit
CC(C)[C@]1(O)[C@@H](OC(=O)c2ccc[nH]2)[C@@]2(O)[C@@]3(C)C[C@]4(O)O[C@@]5([C@H](O)[C@@H](C)CC[C@]35O)[C@@]2(O)C41C	0.1	inhibitor, full curve
COc1ccc(-n2c(=O)c(C)nc3cnc(N4CCNCC4)nc32)cc1	31.62	inhibitor, partial curve, poor fit
C[C@H](N)Cc1c[nH]c2ccc(OCc3cccs3)cc12	35.48	inhibitor, partial curve
CC(C)OC(=O)c1cc(C(=O)OC(C)C)cc([N+](=O)[O-])c1	70.79	inhibitor, partial curve, poor fit
NCCOB(c1ccccc1)c1ccccc1	0.631	inhibitor, full curve
Cc1[nH]c(=O)c(C#N)cc1-c1ccc2nccn2c1	17.78	inhibitor, partial curve, poor fit
CCOC(=O)c1ccc(O)c(O)c1	15.85	inhibitor, full curve
CC(C)[C@]1(O)[C@@H](OC(=O)c2ccc[nH]2)[C@@]2(O)[C@@]3(C)C[C@]4(O)O[C@@]5([C@H](O)[C@@H](C)CC[C@]35O)[C@@]2(O)C41C	28.18	inhibitor, partial curve
CC[C@H](Oc1ccc(Cl)cc1)C(=O)OC1C[C@H]2CC[C@@H](C1)N2C (stereo partly drawn)	22.39	inhibitor, full curve
CN1CCc2cc(O)cc3c2[C@H]1Cc1ccc(O)c(O)c1-3	17.78	inhibitor, full curve
CCCCNc1ccc(C(=O)OCCN(C)C)cc1	2.512	inhibitor, full curve, poor fit
O=c1c(-c2cc(F)cc(F)c2)nc2cnc(N3CCNCC3)nc2n1-c1ccccc1	14.13	inhibitor, partial curve
O=c1cc(N2CCOCC2)oc2c(-c3ccccc3)cccc12	31.62	inhibitor, partial curve
CC1=C(C)C(=O)C(CCCCC#CCCCC#CCO)=C(C)C1=O	35.48	inhibitor, partial curve
CCCCCCCC/C=C\CCCCCCCC(=O)NCCc1ccc(O)c(O)c1	5.012	inhibitor, full curve
C[C@H](N)CN1CCc2ccc(Br)cc21	17.78	inhibitor, partial curve
CCCOC(C(=O)OC1CCN(C)CC1)(c1ccccc1)c1ccccc1	31.62	inhibitor, partial curve
COc1ccc(C2Nc3ccccc3C(=O)N2c2ccccc2)cc1COc1ccc(NC(C)=O)cc1 (stereo not drawn)	24.31	inhibitor, partial curve, poor fit
CN1C2CCC1CC(OC(c1ccccc1)c1ccccc1N)C2 (stereo not drawn)	25.12	inhibitor, full curve
COC(=O)[C@@H](N)Cc1ccc(O)c(O)c1	39.81	inhibitor, partial curve
c1ccc2c(N3CCNCC3)cccc2c1	1.778	inhibitor, full curve
COc1c2c(c(C(=O)/C=C/C(C)=C/c3ccccc3)c3c1OCO3)CCN(C)C2	39.81	inhibitor, partial curve, poor fit
C=CCN1C[C@H](C)N([C@H](c2ccc(C(=O)N(CC)CC)cc2)c2cccc(O)c2)C[C@H]1C	31.62	inhibitor, partial curve
c1ccc2c(CN3CCNCC3)cccc2c1	39.81	inhibitor, partial curve

The first 3 entries again:

- N=C(N)SCCN=C(N)N | fitted potency 63.1 µM (inhibitor, partial curve, poor fit)
- CN1CC[C@@H]2CN3CCc4cccc(c43)[C@@H]2C1 | fitted potency 1.778 µM (inhibitor, full curve, poor fit)
- CC(=O)C1=C(O)C2C3c4c[nH]c5cccc(c45)CC3C(C)(C)N2C1=O (stereo not drawn) | fitted potency 8.912 µM (inhibitor, partial curve)

Data taken from PubChem BioAssay AID1508628, deposited by NCATS (2021).